Hit rate of the full screen: of about 300,000 compounds, about 3,700 (1.2%) were called active. This list was built around the results that the source calls inconclusive (neither active nor inactive); the mix of calls is not that of the screen. Calls come from the whole dose curve; tested in HEK293 cells. Potencies beside an inconclusive call are fits to weak or partial responses and may not hold up.
Assay: qHTS for Inhibitors of binding or entry into cells for Lassa Virus; note: nearly all actives have a fitted effect of over 50% in size
Conditions: Lassa virus pseudotype entry inhibition, cell reporter; activity change, negative = inhibition: at 37.9 µM (top of the series) unless noted
% is set by controls: 0 for no effect and ±100 for the full control effect; potency is the fitted concentration of half-maximal effect.

Compound	activity change, negative = inhibition	Potency
O=C(Nc1ccc(F)c(Cl)c1)C1Cc2ccccc2CN1S(=O)(=O)c1ccc(F)cc1 (stereo unspecified)	inactive: 0.423% [at 46.1 µM]	
CC(=O)C1=C(O)C(CSCc2ccccc2)N(C)C1=O (stereo unspecified)		inconclusive: 1.26 µM [activator, partial curve, poor fit]
CC(=O)Nc1ccc(S(=O)(=O)N(C)CC(=O)OCC(=O)NNC(=O)c2ccccc2F)cc1	inactive: -2.51%	
CCC(NC(=O)C1(C)CC1(Br)Br)c1ccc(C)cc1 (stereo unspecified)	inactive: 0.369%	
O=C(Nc1nccs1)C1CCN(S(=O)(=O)c2c(Cl)cccc2Cl)CC1		inconclusive: 35.5 µM [inhibitor, single point]
CN(Cc1cccnc1)C(=O)c1cc(COc2ccc3c(c2)CCCC3)on1		inconclusive: 22.4 µM [inhibitor, single point]
CCOC(=O)C1(Cc2ccccc2C)CCCN(C(=O)c2ccoc2)C1 (stereo unspecified)		inconclusive: 7.94 µM [activator, partial curve, poor fit]
Cc1ccc(N(Cc2ccc(C(=O)NCC3CCCO3)cc2)S(C)(=O)=O)cc1C (stereo unspecified)		inconclusive: 11.2 µM [inhibitor, partial curve, poor fit]
CC(C=Cc1ccccc1)=NNS(=O)(=O)c1ccc([N+](=O)[O-])cc1	inactive: -16.9% [at 46.1 µM]	
Cc1ccc(-n2nc(C)c3c(C)cc(=O)n(CC(=O)NC(C)C)c32)cc1	inactive: 6.6% [at 46.1 µM]	
CCc1cccc(CC)c1N(COC)C(=O)Cn1c(C)nc2ccccc21	inactive: -18.2% [at 46.1 µM]	
COc1ccccc1NC(=O)c1c(C)cc(C)nc1SCC(=O)Nc1cccc(C)c1		inconclusive: 3.16 µM [inhibitor, single point]
CC(=O)c1nnn(-c2nc(N)nc(N(c3ccccc3)c3ccccc3)n2)c1C	inactive: -9.24%	
C=CCOc1ccc(C2c3c(oc4ccc(C)cc4c3=O)C(=O)N2CCCN2CCOCC2)cc1 (stereo unspecified)		inconclusive: 28.2 µM [activator, single point]
CC1(C)CC(=O)c2c(-c3cccs3)n[nH]c2C1	inactive: 26.3%	
O=c1c2ccccc2nc(-c2ccco2)n1-c1nc2ccccc2s1	inactive: -0.701%	
Cc1ccc(-c2ccc(=O)n(CC(=O)Nc3ccc(C(C)C)cc3)n2)cc1	inactive: 15.6% [at 46.1 µM]	
CC(NC(=O)/C(C#N)=C1\N=C(NC(=O)c2ccco2)c2ccccc21)c1ccccc1 (stereo unspecified)		inconclusive: 3.16 µM [activator, single point]
Nc1nnc(SCCOc2cccc(Br)c2)s1	inactive: -27.7%	
C/C(=N\NC(=O)CCc1ccc(S(=O)(=O)N2CCOCC2)cc1)c1ccc(Br)cc1		inconclusive: 3.98 µM [inhibitor, partial curve, poor fit]
O=C(COC(=O)COc1ccccc1)Nc1ncc([N+](=O)[O-])s1	inactive: 5.76%	

4 of these compounds in another layout.
Compound | activity change, negative = inhibition | Potency
O=c1c2ccccc2nc(-c2ccco2)n1-c1nc2ccccc2s1 | inactive: -0.701% | 
Cc1ccc(-c2ccc(=O)n(CC(=O)Nc3ccc(C(C)C)cc3)n2)cc1 | inactive: 15.6% [at 46.1 µM] | 
CC(NC(=O)/C(C#N)=C1\N=C(NC(=O)c2ccco2)c2ccccc21)c1ccccc1 (stereo unspecified) |  | inconclusive: 3.16 µM [activator, single point]
Nc1nnc(SCCOc2cccc(Br)c2)s1 | inactive: -27.7% | 
